Results on 37 targets are retold here after the supplement of paper PMC12819154, “High-throughput peptide-centric local stability assay extends protein–ligand identification to membrane proteins, tissues and bacteria” (Nature Structural & Molecular Biology, 2025).

The chains behind the UniProt entries cited, without tags or fusion partners. Where a name states a change or a piece, a line headed by the entry shows the natural chain unless it says otherwise.
UniProt P35330: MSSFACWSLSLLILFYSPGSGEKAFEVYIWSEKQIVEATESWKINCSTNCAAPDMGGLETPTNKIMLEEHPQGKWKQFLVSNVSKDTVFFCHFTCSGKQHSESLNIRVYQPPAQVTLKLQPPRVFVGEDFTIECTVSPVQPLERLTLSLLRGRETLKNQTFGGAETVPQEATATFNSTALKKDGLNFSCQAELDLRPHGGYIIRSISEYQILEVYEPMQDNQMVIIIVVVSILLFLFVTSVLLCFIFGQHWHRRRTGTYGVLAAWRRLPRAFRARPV
UniProt P43120: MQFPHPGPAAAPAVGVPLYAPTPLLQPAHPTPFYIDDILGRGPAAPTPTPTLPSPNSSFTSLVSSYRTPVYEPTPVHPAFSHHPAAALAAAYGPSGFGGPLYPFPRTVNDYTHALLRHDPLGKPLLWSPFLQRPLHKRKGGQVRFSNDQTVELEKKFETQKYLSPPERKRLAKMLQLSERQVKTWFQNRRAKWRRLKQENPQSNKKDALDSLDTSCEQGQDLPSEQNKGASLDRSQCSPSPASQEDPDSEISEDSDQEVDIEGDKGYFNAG
UniProt P46414, whole entry: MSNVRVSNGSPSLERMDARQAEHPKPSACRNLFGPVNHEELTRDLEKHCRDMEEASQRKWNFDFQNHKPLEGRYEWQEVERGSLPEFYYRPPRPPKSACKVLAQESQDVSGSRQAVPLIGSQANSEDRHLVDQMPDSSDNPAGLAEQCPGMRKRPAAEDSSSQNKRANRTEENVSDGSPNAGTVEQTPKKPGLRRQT
UniProt P51658: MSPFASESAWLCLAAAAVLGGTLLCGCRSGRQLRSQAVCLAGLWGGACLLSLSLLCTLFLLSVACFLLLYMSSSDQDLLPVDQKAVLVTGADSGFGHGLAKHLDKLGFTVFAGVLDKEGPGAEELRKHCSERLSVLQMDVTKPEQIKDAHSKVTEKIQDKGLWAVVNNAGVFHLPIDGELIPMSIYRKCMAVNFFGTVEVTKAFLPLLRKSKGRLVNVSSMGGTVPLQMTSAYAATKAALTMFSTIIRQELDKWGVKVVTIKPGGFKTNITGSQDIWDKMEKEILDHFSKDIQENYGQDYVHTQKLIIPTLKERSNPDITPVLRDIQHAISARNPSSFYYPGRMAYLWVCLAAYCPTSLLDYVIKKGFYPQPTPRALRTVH
UniProt P45377: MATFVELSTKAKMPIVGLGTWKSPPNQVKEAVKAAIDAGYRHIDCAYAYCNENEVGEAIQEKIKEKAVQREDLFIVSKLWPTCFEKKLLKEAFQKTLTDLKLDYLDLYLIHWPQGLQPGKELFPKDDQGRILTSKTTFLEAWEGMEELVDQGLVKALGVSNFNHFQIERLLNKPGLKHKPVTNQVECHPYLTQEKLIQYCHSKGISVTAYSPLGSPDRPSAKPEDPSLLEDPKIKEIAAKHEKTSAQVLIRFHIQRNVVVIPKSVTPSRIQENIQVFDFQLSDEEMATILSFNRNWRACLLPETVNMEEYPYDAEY
UniProt P35700: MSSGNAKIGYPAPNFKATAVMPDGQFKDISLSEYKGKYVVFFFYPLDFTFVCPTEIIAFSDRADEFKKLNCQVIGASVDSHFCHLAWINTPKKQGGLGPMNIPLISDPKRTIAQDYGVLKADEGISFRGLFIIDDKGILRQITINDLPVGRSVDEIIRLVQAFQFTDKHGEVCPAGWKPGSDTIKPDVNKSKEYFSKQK
UniProt P31230: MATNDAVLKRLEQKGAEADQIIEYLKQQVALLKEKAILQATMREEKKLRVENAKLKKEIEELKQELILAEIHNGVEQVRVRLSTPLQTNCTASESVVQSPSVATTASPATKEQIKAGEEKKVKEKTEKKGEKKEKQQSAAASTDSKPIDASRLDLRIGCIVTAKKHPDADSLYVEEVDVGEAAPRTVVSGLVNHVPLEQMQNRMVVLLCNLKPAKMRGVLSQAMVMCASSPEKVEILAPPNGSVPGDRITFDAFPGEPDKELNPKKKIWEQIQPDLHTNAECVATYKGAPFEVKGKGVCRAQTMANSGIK
UniProt P46638: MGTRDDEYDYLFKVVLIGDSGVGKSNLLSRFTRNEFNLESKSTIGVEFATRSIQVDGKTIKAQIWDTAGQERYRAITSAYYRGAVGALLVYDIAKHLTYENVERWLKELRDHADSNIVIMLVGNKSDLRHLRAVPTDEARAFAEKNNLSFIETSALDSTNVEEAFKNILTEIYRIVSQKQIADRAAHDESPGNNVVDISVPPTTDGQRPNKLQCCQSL
UniProt P43883: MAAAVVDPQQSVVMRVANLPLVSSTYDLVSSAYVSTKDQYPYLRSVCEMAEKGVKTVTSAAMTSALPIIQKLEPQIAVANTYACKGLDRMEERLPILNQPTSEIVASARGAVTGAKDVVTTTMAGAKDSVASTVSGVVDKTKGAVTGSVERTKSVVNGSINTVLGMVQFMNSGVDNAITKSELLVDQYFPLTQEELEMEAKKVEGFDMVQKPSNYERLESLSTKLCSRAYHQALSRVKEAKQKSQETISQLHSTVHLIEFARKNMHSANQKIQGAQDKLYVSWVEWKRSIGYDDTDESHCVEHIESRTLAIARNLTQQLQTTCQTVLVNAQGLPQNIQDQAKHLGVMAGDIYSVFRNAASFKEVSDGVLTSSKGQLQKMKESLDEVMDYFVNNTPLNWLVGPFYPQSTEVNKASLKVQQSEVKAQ
UniProt P31651: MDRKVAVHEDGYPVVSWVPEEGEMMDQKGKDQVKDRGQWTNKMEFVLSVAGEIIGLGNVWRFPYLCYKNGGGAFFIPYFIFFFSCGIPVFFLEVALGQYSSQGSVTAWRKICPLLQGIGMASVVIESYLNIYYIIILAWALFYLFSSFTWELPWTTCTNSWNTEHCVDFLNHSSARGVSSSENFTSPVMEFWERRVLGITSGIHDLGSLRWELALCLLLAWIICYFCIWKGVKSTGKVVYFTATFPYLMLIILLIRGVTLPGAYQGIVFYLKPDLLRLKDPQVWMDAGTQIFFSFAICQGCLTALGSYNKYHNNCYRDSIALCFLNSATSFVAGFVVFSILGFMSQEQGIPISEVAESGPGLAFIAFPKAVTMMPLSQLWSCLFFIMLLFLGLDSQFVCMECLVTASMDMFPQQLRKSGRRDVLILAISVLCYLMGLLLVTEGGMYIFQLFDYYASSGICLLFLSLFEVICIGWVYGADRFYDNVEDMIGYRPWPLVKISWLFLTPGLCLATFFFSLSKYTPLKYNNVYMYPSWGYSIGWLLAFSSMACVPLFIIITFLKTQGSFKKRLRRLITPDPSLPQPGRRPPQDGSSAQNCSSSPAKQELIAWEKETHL
UniProt P56593: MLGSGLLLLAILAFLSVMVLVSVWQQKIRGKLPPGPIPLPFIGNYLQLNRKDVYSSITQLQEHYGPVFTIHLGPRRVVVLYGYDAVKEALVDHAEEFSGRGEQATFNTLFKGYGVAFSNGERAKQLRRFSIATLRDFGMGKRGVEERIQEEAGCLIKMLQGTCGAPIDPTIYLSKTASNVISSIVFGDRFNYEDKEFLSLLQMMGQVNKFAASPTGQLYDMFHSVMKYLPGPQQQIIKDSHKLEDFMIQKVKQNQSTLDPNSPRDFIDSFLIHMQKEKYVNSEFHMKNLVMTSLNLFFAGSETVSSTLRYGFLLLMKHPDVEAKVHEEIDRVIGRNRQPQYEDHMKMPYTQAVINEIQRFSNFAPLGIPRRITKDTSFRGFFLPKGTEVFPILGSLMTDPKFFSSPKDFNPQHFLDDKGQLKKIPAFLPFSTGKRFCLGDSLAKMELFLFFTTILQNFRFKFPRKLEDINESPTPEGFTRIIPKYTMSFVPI
UniProt P48036: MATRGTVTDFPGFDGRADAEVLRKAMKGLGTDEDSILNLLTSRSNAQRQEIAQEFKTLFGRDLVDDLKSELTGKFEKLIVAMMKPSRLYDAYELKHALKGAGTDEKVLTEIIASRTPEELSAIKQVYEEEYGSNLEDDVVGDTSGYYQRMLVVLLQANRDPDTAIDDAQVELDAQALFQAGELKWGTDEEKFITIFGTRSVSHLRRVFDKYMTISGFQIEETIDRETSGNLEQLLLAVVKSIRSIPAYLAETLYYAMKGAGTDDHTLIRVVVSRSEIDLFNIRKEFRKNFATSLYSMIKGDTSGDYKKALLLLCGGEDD
UniProt P28798: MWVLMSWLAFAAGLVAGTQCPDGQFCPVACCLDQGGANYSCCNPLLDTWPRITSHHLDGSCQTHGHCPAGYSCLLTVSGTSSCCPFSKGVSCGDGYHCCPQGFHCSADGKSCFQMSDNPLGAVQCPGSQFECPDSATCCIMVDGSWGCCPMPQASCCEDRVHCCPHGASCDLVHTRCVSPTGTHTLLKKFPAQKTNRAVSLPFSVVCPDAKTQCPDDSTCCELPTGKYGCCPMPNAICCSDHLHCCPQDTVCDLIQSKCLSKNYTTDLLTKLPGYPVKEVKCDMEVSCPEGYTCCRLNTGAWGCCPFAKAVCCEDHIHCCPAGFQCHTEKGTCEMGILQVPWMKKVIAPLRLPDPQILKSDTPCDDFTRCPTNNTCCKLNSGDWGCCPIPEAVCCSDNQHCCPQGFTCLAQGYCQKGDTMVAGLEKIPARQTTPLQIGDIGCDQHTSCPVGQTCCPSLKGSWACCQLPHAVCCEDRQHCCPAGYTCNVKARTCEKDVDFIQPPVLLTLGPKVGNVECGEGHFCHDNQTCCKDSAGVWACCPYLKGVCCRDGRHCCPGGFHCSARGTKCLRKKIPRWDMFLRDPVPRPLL
UniProt P52792, whole entry: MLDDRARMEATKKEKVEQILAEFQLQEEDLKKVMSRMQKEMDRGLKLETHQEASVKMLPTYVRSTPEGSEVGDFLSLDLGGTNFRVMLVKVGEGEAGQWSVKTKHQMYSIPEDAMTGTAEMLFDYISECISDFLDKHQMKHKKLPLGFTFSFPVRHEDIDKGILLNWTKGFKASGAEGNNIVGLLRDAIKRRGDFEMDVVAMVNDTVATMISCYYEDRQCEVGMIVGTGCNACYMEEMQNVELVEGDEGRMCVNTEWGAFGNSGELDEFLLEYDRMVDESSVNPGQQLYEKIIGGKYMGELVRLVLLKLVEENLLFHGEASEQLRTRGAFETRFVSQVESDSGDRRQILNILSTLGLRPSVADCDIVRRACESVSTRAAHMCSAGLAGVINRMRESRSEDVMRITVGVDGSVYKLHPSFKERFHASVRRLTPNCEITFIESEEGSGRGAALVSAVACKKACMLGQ
UniProt P28666: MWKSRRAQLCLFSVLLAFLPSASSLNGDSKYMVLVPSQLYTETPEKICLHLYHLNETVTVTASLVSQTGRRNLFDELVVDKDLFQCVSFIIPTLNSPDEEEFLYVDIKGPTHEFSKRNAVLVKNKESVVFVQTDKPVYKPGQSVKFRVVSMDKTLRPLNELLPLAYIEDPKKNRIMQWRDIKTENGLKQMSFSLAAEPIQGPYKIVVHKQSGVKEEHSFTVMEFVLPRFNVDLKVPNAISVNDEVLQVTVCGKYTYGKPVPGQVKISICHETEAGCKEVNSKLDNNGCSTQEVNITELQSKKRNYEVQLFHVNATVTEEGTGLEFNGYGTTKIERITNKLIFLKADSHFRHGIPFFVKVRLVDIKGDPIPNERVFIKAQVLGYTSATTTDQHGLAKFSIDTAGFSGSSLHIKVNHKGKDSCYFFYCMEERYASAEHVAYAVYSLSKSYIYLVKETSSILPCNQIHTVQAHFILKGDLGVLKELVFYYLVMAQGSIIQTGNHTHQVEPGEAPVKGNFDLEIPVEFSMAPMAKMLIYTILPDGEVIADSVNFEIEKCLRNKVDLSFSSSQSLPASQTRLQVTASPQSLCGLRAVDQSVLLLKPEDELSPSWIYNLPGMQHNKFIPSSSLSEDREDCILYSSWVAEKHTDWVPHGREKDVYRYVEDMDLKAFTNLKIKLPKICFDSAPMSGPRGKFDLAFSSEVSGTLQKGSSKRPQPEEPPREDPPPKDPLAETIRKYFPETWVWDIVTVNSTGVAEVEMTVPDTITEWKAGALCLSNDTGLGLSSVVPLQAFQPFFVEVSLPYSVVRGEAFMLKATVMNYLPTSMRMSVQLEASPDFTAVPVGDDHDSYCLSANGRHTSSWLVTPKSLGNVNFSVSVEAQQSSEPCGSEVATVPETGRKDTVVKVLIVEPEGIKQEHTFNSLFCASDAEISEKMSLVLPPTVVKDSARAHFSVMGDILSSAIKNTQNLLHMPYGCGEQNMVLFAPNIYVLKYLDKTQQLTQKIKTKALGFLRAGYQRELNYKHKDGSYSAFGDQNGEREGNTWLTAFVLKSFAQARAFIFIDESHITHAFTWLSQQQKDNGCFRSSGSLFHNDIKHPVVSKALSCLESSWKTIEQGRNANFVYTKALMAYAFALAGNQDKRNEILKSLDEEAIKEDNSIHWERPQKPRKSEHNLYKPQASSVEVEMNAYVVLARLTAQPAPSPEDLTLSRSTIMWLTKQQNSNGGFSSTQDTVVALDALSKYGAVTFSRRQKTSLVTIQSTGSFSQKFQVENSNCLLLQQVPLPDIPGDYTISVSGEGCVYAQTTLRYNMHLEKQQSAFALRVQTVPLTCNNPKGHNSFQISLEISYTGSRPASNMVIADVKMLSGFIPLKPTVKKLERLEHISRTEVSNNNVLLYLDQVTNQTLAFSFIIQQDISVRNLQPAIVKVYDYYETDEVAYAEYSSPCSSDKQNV

Some of the results follow. Most entries show no effect beyond the scatter of the controls.

Compound in the assay: CN[C@@H]1C[C@H]2O[C@@](C)([C@@H]1OC)n1c3ccccc3c3c4c(c5c6ccccc6n2c5c31)C(=O)NC4 [staurosporine]
The assay can be described thus: log2 fold change of pooled soluble protein (PISA), ligand vs vehicle (log2 ratio); higher = more thermally stabilized. As to conditions: ligand concentration: 20 uM; assay format: PISA pool 52.9/55.5/58.6 C.
With UniProt P49182, the “log2 fold change of pooled soluble protein” value (“log2 fold change” for short) was -0.0926.

Consider UniProt P29416, for which the “log2 fold change” value is -0.125.

Take UniProt P35330: the “log2 fold change” value came to 0.138.

As for UniProt P45376, the “log2 fold change” value was -0.134.

Take UniProt P38060: the “log2 fold change” value is -0.0596.

Turning to UniProt P52795, the “log2 fold change” value is -0.167. UniProt P43120: the “log2 fold change” value is -0.11. To UniProt P30204 belongs 0.417; to UniProt P51125, 0.0591. To UniProt P46414 belongs -0.059. To UniProt P30999 belongs -0.00426; to UniProt P51658, 0.0814. For the target UniProt P48678, the “log2 fold change” value came out at 0.0049.

Regarding UniProt P47911, the “log2 fold change” value is -0.114. To UniProt P53810 belongs 0.168; to UniProt P45377, 0.000474; to UniProt P40142, -0.218. To UniProt P29341 belongs 0.0106. Under UniProt P38647 stands -0.0309; under UniProt P35700, -0.081; under UniProt P31230, -0.0592. For the target UniProt P37913, the “log2 fold change” value was -0.00444.

As for UniProt P46638, the “log2 fold change” value was -0.0224. Take UniProt P43883: the “log2 fold change” value is -0.107. To UniProt P31651 belongs 0.176; to UniProt P49070, -0.395. Under UniProt P56593 stands -0.0708; under UniProt P48036, -0.0224; under UniProt P28798, 0.0443. To UniProt P51432 belongs -0.27. With UniProt P52792, the “log2 fold change” value came to 0.00895. To UniProt P31532 belongs -0.118; to UniProt P48377, -0.0432. To UniProt P56213 belongs 0.0368; to UniProt P49722, -0.196; to UniProt P52624, 0.253. Under UniProt P28666 stands -0.0915.
